# Earlier results in patent US11976056B2, “Substituted alkoxypyridinyl indolsulfonamides” (UCB Pharma GmbH, priority 2018, dated 2024).
# The chains behind the UniProt entries cited, without tags or fusion partners.
# UniProt Q13304, whole entry, species assumed: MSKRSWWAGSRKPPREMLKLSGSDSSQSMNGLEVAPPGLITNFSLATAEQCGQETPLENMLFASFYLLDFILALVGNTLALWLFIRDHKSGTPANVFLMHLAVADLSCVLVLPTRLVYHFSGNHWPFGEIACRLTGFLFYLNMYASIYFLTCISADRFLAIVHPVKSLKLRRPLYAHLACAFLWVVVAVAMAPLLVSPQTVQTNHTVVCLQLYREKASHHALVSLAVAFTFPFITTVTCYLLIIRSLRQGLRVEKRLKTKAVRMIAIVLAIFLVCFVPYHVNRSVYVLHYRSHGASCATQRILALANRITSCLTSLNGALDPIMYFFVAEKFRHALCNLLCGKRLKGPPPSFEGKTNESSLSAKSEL
# For at least one compound, name, drawing or mass did not settle the structure.
# Experiments:
# [1] = system: primary mouse oligodendrocytes; conditions: cited from earlier work
# [2] = pranlukast-treated wild-type mice; cited from earlier work
# [3] = system: primary rat oligodendrocytes; conditions: cited from earlier work
# [4] = target: GPR17 (Homo sapiens, UniProt Q13304); conditions: cited from earlier work
structure (smiles),measurement,setting,value
O=C(Nc1cccc2c(=O)cc(-c3nnn[nH]3)oc12)c1ccc(OCCCCc2ccccc2)cc1 [pranlukast],differentiation of primary oligodendrocytes,[1],promotes differentiation
same,onset of remyelination,[2],earlier onset of remyelination
same,differentiation of primary oligodendrocytes,[3],promotes differentiation
same,affinity to GPR17,[4],high micromolar range
